PubChem BioAssay AID743454 | Peter MacCallum Cancer Centre | 2014
This is an unselected part of about 18,000 deposited reagents. 450 of all reagents (2.5%) were called active. 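Single biological run; no consistent viability z cut-off exists, so the class columns, not z-scores, define the calls.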 Reagent sequences are not shown.

Purpose: 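Genes whose loss kills vorinostat-resistant colon cancer cells under vorinostat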 (primary screen)
Cell system: human HCT116-VR colon cancer cells, selected for vorinostat resistance
Knock-down reagent: siRNA pool against human genes, 40 nM siRNA pool
Duration: vorinostat for 24 h, read-out about 72 h after transfection
Conditions: vorinostat at 2.5 µM final
Measured: 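Two measures, CellTiter-Fluor viability and luminescent caspase 3/7 activity, each as fold change against same-plate mock wells, mean of duplicates, then screen-wide robust z-score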
Reading the numbers: viability robust z-score: higher = more viable cells than screen typical; caspase robust z-score: higher = more caspase 3/7 activity than screen typical
Rule for the call: 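Hits are knock-downs in viability class RV1/RV2 or caspase class CA1/CA2, excluding ones that killed cells in the no-drug cell-count arm; hits then retested with single siRNAs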

gene	viability hit class	caspase hit class	viability robust z-score	caspase robust z-score	call
TUSC2	no change	no change	0.17	-0.05	inactive
SUSD6	no change	no change	0.13	1.12	inactive
DGCR2	no change	no change	-1.1	0.72	inactive
PCDHGA10	no change	no change	-1.81	1.99	inactive
PPP1R3B	no change	no change	0.07	-0.38	inactive
ZNF569	no change	no change	1.36	-0.4	inactive
CNTNAP5	no change	no change	0.3	0.57	inactive
COMMD2	no change	CA1 (caspase activation)	-1.23	6.35	active
DLX6	no change	no change	0.28	1.47	inactive
ADRA1D	no change	no change	-0.46	-0.82	inactive
RP1L1	no change	no change	-0.57	-0.52	inactive
CD1E	no change	no change	0.61	0.12	inactive
S100A7	no change	no change	-0.02	-0.45	inactive
OR6A2	no change	no change	0.3	-0.22	inactive
LRRC43	no change	no change	-0.14	-1.02	inactive
OR52E6	no change	no change	-0.78	-0.98	inactive
CELF3	no change	no change	0.47	-0.06	inactive
KCNMB4	no change	no change	0.36	1.03	inactive
NEMP1	no change	no change	-1.35	-1.15	inactive
FGR	no change	no change	-0.29	2.53	inactive
VTI1A	no change	no change	0.38	-0.48	inactive
S100A12	no change	no change	-1.08	0.08	inactive
C1QL3	no change	no change	-0.46	-0.09	inactive
TMEM106A	no change	no change	-0.52	-0.8	inactive
OR8H1	no change	no change	0.96	-0.35	inactive
RCN2	no change	no change	-0.5	-1.6	inactive
SLAMF9	no change	no change	0.2	-0.08	inactive
ZNF311	no change	no change	0.88	0.33	inactive
USF3	no change	no change	-0.91	-0.16	inactive
STARD7-AS1	no change	no change	0.58	0.29	inactive
FPR1	no change	no change	-0.04	-0.22	inactive
PRAMEF8	no change	no change	0.78	1.31	inactive
SLC22A4	no change	no change	0.19	-1.04	inactive
NUP54	no change	CA1 (caspase activation)	-1.24	8.15	active
HSPB8	no change	no change	-0.08	-0.09	inactive
HBG1	no change	no change	0.73	0.01	inactive
SPSB4	no change	no change	-0.74	0.8	inactive
WIPF3	no change	no change	0.54	0.35	inactive
SIKE1	no change	no change	-0.24	0.8	inactive
